Three molecules from publication PMC3796466 can be followed below.

In assay [1] the target is T1, amino-terminally double myc-tagged mouse transferrin receptor 2 (mTfr2), wild type (mouse) (UniProt Q9JKX3).
T1 sequence: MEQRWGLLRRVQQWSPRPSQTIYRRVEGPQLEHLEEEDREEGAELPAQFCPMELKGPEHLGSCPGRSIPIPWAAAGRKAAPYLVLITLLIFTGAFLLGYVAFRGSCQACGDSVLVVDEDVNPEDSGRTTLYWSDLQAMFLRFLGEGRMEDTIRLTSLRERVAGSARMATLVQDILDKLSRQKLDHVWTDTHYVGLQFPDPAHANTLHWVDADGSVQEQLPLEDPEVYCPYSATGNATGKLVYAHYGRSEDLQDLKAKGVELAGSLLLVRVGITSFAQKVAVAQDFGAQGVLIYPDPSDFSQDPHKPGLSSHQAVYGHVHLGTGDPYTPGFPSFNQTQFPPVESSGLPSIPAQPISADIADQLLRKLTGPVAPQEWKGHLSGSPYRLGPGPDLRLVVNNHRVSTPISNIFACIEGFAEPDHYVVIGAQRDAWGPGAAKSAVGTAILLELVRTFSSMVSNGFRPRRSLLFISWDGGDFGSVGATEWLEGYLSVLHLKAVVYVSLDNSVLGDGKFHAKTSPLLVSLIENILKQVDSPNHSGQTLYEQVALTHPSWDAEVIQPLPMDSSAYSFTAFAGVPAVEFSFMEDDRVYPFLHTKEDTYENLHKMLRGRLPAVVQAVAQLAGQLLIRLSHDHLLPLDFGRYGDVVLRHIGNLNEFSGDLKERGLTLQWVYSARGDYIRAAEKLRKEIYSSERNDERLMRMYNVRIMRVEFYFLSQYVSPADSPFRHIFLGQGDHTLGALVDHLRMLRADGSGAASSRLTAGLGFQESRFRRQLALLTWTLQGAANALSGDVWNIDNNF
Description: co-IP; lysates of Hepa 1-6 cells stably co-expressing FLAG-Hfe and myc-Tfr2 (WT or Y245X); anti-DYKDDDDK beads or anti-Tfr2 cross-linked to protein A/G beads, overnight at 4°C; cells treated with the surface crosslinker BS3 for 30 minutes at 4 °C before harvest; also cells cultured with 2 mg/ml apo-Tf or holo-Tf for 24 hours; rabbit and mouse IgG beads as controls.

Assay [2] has as its target T1, amino-terminally double myc-tagged mouse transferrin receptor 2 (mTfr2), wild type (mouse). Description: proximity ligation; Duolink mouse/rabbit red kit on fixed, saponin-permeabilized Hepa1-6 cells stably co-expressing FLAG-Hfe and myc-Tfr2 (WT); antibodies against FLAG, Tfr1 and Tfr2; cells untreated or cultured with 2 mg/ml apo-Tf or holo-Tf for 24 hours.
For assay [3], the target named is T2, FLAG-tagged mouse Hfe (mHfe) (mouse) (UniProt P70387).
T2 sequence: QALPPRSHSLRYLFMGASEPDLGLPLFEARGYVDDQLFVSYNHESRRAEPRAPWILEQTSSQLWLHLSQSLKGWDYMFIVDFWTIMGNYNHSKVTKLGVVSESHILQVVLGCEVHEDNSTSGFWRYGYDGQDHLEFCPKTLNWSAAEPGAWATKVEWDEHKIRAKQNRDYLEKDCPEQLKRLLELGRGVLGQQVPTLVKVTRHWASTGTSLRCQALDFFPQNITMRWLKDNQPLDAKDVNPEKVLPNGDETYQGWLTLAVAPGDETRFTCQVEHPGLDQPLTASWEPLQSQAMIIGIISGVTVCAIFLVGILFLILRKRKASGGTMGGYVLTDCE
Description: co-IP; lysates of Hepa 1-6 cells stably co-expressing FLAG-Hfe and myc-Tfr2 (WT or Y245X); anti-DYKDDDDK beads or anti-Tfr2 cross-linked to protein A/G beads, overnight at 4°C; cells treated with the surface crosslinker BS3 for 30 minutes at 4 °C before harvest; also cells cultured with 2 mg/ml apo-Tf or holo-Tf for 24 hours; rabbit and mouse IgG beads as controls.

No constants are given. Whether binding was seen depends on the method and setting. In cells and extracts the contact can be indirect. Sequences can lack the tags named with a protein.

B1: FLAG-tagged mouse Hfe (mHfe) (protein, UniProt P70387 25-359)
chain: QALPPRSHSLRYLFMGASEPDLGLPLFEARGYVDDQLFVSYNHESRRAEPRAPWILEQTSSQLWLHLSQSLKGWDYMFIVDFWTIMGNYNHSKVTKLGVVSESHILQVVLGCEVHEDNSTSGFWRYGYDGQDHLEFCPKTLNWSAAEPGAWATKVEWDEHKIRAKQNRDYLEKDCPEQLKRLLELGRGVLGQQVPTLVKVTRHWASTGTSLRCQALDFFPQNITMRWLKDNQPLDAKDVNPEKVLPNGDETYQGWLTLAVAPGDETRFTCQVEHPGLDQPLTASWEPLQSQAMIIGIISGVTVCAIFLVGILFLILRKRKASGGTMGGYVLTDCE
For B1, the binding result in assay [1] and in assay [2] was “no binding” in each case.

B2: amino-terminally double myc-tagged mouse transferrin receptor 2 (mTfr2), wild type (receptor, UniProt Q9JKX3 1-798)
chain: MEQRWGLLRRVQQWSPRPSQTIYRRVEGPQLEHLEEEDREEGAELPAQFCPMELKGPEHLGSCPGRSIPIPWAAAGRKAAPYLVLITLLIFTGAFLLGYVAFRGSCQACGDSVLVVDEDVNPEDSGRTTLYWSDLQAMFLRFLGEGRMEDTIRLTSLRERVAGSARMATLVQDILDKLSRQKLDHVWTDTHYVGLQFPDPAHANTLHWVDADGSVQEQLPLEDPEVYCPYSATGNATGKLVYAHYGRSEDLQDLKAKGVELAGSLLLVRVGITSFAQKVAVAQDFGAQGVLIYPDPSDFSQDPHKPGLSSHQAVYGHVHLGTGDPYTPGFPSFNQTQFPPVESSGLPSIPAQPISADIADQLLRKLTGPVAPQEWKGHLSGSPYRLGPGPDLRLVVNNHRVSTPISNIFACIEGFAEPDHYVVIGAQRDAWGPGAAKSAVGTAILLELVRTFSSMVSNGFRPRRSLLFISWDGGDFGSVGATEWLEGYLSVLHLKAVVYVSLDNSVLGDGKFHAKTSPLLVSLIENILKQVDSPNHSGQTLYEQVALTHPSWDAEVIQPLPMDSSAYSFTAFAGVPAVEFSFMEDDRVYPFLHTKEDTYENLHKMLRGRLPAVVQAVAQLAGQLLIRLSHDHLLPLDFGRYGDVVLRHIGNLNEFSGDLKERGLTLQWVYSARGDYIRAAEKLRKEIYSSERNDERLMRMYNVRIMRVEFYFLSQYVSPADSPFRHIFLGQGDHTLGALVDHLRMLRADGSGAASSRLTAGLGFQESRFRRQLALLTWTLQGAANALSGDVWNIDNNF
On to B2, for which the binding result in assay [3] is reported as “no binding”.

B3: amino-terminally double myc-tagged mouse Tfr2 Y245X truncation mutant (domain or fragment, UniProt Q9JKX3 1-244)
chain: MEQRWGLLRRVQQWSPRPSQTIYRRVEGPQLEHLEEEDREEGAELPAQFCPMELKGPEHLGSCPGRSIPIPWAAAGRKAAPYLVLITLLIFTGAFLLGYVAFRGSCQACGDSVLVVDEDVNPEDSGRTTLYWSDLQAMFLRFLGEGRMEDTIRLTSLRERVAGSARMATLVQDILDKLSRQKLDHVWTDTHYVGLQFPDPAHANTLHWVDADGSVQEQLPLEDPEVYCPYSATGNATGKLVYAH
For the molecule B3, the binding entry in assay [3] is on record as “no binding”.
